Earlier results as cited in patent US20230357726A1, “HUMAN PRIMARY MYELOFIBROSIS CELL STRAIN AND USE THEREOF” (ZHEJIANG UNIVERSITY, priority 2021, published 2023).
Some results were stated once for a whole list of compounds, not compound by compound. At least one compound was matched to its structure with a doubt left.

Tested on: PMF patients
Details: traditional drug treatment

Row | Structure (SMILES) | PMF patients responded
1 | N#CC[C@H](C1CCCC1)n1cc(-c2ncnc3[nH]ccc23)cn1 [ruxolitinib] | 15%-25
2 | NC(=O)NO [hydroxyurea] | 15%-25
